# The whole screen tested about 290,000 compounds, of which about 110 (0.038%) were called active. Inconclusive means that the source gave no clear call. Such entries were picked first, then a sample of the others. Calls follow the shape of the dose curve; as a rule, active = well fitted inhibition curve with a large enough effect in the polarisation, with a control signal flat (not every such curve was filed as active); inconclusive = small, poorly fitted or top-dose-only effect, or effect the other way, or a change in a side signal; inactive = no such curve, though single readings can be large or run the other way; the % refers to the polarisation. Where the call is inconclusive, the potency comes from a doubtful curve fit. A note “side channel” means that the fit belongs to a control or component signal, not to the main read-out.
# Amino acid sequences for entries named in this document (tags omitted).
# UniProt Q03164, whole entry, looked up: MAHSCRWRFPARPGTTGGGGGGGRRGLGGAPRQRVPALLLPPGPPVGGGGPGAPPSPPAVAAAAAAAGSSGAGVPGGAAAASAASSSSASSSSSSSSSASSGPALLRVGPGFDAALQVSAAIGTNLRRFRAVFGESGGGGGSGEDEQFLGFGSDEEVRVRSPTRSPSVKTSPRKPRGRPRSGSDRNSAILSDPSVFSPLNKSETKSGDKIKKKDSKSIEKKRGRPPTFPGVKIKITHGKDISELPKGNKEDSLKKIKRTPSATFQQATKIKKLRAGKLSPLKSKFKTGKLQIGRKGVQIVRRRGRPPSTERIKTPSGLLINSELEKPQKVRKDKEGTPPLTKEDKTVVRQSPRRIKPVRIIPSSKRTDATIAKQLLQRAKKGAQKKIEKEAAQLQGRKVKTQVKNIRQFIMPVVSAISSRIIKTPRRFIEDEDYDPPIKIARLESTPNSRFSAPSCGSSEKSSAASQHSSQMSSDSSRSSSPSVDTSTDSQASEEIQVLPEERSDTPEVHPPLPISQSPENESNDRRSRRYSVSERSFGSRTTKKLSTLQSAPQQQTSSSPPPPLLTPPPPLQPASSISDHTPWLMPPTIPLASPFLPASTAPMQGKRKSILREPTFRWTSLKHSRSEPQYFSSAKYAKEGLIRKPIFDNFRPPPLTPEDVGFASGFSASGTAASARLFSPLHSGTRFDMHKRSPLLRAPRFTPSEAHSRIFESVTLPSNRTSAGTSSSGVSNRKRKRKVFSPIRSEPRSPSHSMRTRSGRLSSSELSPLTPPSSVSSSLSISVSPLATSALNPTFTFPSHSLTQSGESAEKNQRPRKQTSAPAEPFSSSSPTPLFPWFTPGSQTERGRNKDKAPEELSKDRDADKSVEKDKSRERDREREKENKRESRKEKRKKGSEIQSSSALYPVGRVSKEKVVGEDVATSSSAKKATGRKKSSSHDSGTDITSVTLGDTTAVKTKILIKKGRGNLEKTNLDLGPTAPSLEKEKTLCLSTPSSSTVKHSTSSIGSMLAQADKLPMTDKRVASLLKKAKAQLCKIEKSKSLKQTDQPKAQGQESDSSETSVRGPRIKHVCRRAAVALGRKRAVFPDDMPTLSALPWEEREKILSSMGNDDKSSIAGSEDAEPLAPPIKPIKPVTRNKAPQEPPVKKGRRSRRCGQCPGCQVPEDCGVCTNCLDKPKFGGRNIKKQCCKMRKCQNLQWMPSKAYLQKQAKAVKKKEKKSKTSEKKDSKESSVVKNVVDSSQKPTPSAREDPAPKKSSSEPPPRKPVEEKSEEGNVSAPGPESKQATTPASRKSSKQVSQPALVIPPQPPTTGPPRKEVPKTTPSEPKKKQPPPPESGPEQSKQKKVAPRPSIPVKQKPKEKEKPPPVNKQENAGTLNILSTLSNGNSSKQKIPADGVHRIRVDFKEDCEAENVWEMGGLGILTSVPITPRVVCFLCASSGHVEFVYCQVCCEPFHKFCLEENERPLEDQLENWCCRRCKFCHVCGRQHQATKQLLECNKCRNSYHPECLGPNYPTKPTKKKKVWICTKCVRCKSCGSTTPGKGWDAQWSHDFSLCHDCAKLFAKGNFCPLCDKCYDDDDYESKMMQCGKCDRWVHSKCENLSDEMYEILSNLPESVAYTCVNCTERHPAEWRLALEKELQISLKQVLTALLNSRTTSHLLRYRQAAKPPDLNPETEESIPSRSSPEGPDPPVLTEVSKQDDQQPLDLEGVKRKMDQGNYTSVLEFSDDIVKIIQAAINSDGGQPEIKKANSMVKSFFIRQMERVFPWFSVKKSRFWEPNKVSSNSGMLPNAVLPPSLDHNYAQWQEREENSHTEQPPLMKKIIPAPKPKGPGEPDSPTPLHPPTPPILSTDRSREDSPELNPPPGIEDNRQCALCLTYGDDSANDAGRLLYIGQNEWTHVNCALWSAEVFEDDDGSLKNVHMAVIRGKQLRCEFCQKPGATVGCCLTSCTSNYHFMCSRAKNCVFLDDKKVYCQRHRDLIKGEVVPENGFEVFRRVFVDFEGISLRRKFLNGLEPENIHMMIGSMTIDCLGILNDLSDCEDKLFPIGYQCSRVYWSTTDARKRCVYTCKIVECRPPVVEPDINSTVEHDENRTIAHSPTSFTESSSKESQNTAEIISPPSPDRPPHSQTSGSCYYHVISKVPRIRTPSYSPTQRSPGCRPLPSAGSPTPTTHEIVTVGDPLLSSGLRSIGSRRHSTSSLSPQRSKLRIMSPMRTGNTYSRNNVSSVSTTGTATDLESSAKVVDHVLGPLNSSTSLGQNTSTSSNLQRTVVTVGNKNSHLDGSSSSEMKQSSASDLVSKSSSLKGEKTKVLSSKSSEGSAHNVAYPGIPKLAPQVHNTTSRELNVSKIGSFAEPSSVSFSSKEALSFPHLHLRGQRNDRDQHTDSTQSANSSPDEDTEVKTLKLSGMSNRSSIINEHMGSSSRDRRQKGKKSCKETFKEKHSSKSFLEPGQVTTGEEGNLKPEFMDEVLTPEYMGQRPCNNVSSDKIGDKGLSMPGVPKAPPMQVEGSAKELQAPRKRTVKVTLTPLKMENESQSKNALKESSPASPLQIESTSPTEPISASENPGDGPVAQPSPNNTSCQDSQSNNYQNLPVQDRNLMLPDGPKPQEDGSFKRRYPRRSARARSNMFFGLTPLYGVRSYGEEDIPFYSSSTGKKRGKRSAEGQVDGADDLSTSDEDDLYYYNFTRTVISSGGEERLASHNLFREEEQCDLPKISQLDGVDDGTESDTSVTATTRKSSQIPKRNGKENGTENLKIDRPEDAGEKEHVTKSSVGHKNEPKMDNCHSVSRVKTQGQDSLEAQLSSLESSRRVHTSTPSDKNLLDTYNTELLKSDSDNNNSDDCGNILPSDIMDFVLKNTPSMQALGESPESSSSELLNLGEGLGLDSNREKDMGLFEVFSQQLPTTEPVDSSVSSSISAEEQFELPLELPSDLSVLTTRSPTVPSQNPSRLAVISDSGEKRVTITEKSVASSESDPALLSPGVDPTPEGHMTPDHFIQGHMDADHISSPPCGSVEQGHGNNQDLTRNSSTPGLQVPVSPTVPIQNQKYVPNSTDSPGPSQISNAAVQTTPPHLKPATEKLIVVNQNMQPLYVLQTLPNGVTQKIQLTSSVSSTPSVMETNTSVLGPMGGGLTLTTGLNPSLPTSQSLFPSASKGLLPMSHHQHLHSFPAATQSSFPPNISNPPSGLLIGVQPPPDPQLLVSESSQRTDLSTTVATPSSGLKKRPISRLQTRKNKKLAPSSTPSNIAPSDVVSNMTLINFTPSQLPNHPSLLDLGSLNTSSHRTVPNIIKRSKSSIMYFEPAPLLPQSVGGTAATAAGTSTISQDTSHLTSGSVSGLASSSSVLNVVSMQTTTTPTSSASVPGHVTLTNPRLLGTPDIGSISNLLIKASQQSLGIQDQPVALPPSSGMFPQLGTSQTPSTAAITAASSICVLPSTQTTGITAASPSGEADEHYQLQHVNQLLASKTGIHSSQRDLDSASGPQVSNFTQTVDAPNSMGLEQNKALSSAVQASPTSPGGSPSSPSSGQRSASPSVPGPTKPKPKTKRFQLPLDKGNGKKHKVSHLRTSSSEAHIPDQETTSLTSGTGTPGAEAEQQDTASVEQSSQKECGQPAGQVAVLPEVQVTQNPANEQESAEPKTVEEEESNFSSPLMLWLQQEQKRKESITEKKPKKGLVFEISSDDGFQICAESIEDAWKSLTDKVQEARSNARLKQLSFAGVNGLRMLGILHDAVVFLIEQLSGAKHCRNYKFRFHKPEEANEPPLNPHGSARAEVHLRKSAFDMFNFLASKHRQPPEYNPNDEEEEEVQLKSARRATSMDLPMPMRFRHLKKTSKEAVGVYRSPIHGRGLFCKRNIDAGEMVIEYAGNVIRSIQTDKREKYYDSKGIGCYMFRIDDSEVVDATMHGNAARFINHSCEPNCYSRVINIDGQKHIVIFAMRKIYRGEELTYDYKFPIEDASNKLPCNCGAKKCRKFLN
# Biological target: Histone-lysine N-methyltransferase 2A (Homo sapiens) (UniProt Q03164)
# Assay: qHTS Fluorescence Polarization Assay for Inhibitors of MLL CXXC domain - DNA interaction
# Conditions: MLL-CXXC / FITC-HOXA9 DNA fluorescence polarization; activity change, negative = inhibition: at 115 µM (top of the series)
# Outline: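 Purified MLL-CXXC (added from a 7 uM solution) was preincubated 5 min at ambient with pinned compounds in 50 mM Tris-HCl pH 7.5, 50 mM NaCl, 1 mM DTT, 0.05% BSA. Fluorescein-labeled HOX-A9 DNA (50 nM solution) followed, 30 min, then polarization read.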
# Potency is read from the fitted curve at half-maximal effect.
Structure (SMILES),Potency,"activity change, negative = inhibition"
CC(=O)c1ccc(-n2cc(C#N)c(=O)[nH]c2=O)cc1,"inconclusive: 31.6 µM [fluorescent, side channel, single point]",
CCn1c2ccccc2c2cc(/C=N/n3cn[nH]c3=S)ccc21,,inactive: 0.0542%
O=c1[nH]c(-c2ccccn2)nc(C(F)(F)F)c1Br,"inconclusive: 28.2 µM [inhibitor, partial curve]",
O=C(NC(=S)Nc1ccccc1Cl)c1ccco1,"inconclusive: 7.08 µM [fluorescent, side channel, full curve]",
CCc1nnc(NC(=O)c2nc(S(=O)(=O)Cc3ccccc3)ncc2Cl)s1,"inconclusive: 31.6 µM [inhibitor, single point]",
CCN1C(=O)/C(=C\c2ccc(-c3ccc([N+](=O)[O-])cc3OC)o2)SC1=Nc1cccc(C(=O)O)c1,"inconclusive: 7.94 µM [fluorescent, side channel, partial curve]",
CN1c2ccsc2C(O)=C(C(=S)Nc2ccc(F)c(Cl)c2)S1(=O)=O,"inconclusive: 10 µM [fluorescent, side channel, full curve, poor fit]",
CCN1CCN(C(=O)C2COc3ccccc3O2)CC1 (centres undefined),"inconclusive: 89.1 µM [inhibitor, single point]",
CCCCCCCOC(=O)C[N+](C)(C)CCOC1CC2CCC1(C)C2(C)C (centres undefined),,inactive: 14.1%
COc1cc(Br)cc(CN2CCN(C/C=C/c3ccccc3)CC2)c1O,,inactive: 5.35%
CS(=O)(=O)c1sc(C#N)c2c1C(=O)CC(c1ccccc1)C2 (centres undefined),"inconclusive: 10 µM [quencher, side channel, single point]",
CCCc1ccc(OCc2ccc(C(=O)NN)o2)c(OC)c1,"inconclusive: 35.5 µM [inhibitor, single point]",
CN(C(=O)CC1C(=O)NCCN1Cc1ccccc1F)C1CCOCC1 (centres undefined),"inconclusive: 15.8 µM [fluorescent, side channel, partial curve]",
O=C(Cc1c(O)c2ccccc2oc1=O)c1ccc(C(F)(F)F)cc1,"inconclusive: 35.5 µM [inhibitor, single point]",
[O-][n+]1c2ccccc2[n+]([O-])c2cc(O)ccc21,"inconclusive: 25.1 µM [fluorescent, side channel, partial curve]",
CCN1CCN(c2c(/C=C3\SC(=S)N(Cc4ccco4)C3=O)c(C)c(C#N)c(=O)n2C)CC1,"inconclusive: 31.6 µM [fluorescent, side channel, partial curve]",
Cc1ccc(S(=O)(=O)NC2OC(=O)C(Cl)=C2Cl)cc1 (centres undefined),"inconclusive: 25.1 µM [inhibitor, partial curve]",
N#Cc1cc2cc3ccccc3nc2n2c(=O)c3ccccc3nc12,"inconclusive: 31.6 µM [fluorescent, side channel, partial curve]",
COc1ccc(CNC(=O)COC(=O)CC2CCCC2)cc1,"inconclusive: 100 µM [fluorescent, side channel, partial curve]",
O=C(NCCO)C(O)C(O)C(=O)NCCO (centres undefined),"inconclusive: 31.6 µM [fluorescent, side channel, partial curve]",

Structure (SMILES),Potency,"activity change, negative = inhibition"
CC1=NN(c2ccccc2)C(=O)/C1=C/c1cc(C)n(C2CC2)c1C,"inconclusive: 11.2 µM [inhibitor, single point]",
CN(C)CCCn1c(SCC(=O)Nc2nc(-c3cccc(Br)c3)cs2)nc2ccccc2c1=O,"inconclusive: 31.6 µM [quencher, partial curve]",
CC(=O)c1cccc(OCc2cc(C(=O)N(C)Cc3ccc(C)o3)no2)c1,,inconclusive: -1.7% [phenotype inactive]
Cn1c(C(=O)N[C@@H](C(=O)O)c2ccccc2)cc2cc(Cl)ccc21,"inconclusive: 20 µM [fluorescent, side channel, partial curve]",
O=C(CSc1nc(O)cc(=O)n1-c1ccccc1)c1ccc(Br)cc1,"inconclusive: 11.2 µM [inhibitor, single point]",
COc1ccccc1-n1c(C)nc2cc(C(=O)NCC3CCCO3)ccc21 (centres undefined),,inactive: 7.87%
Cc1ccc(NC(=O)c2ccc(NCCN)c([N+](=O)[O-])c2)cc1,"inconclusive: 15.8 µM [fluorescent, side channel, single point]",
Cc1nn(-c2cc(N3CCCC3)ccc2[N+](=O)[O-])c(=O)c2ccccc12,,inactive: 0.764%
CCC(C(=O)O)N1C(=O)/C(=C/c2cccn2C)SC1=S (centres undefined),"inconclusive: 25.1 µM [fluorescent, side channel, partial curve]",
CC(C)c1ccccc1OCC(=O)NN1C(=O)c2ccccc2C1=O,"inconclusive: 100 µM [inhibitor, partial curve]",
CC(C)OCCCN1CC(=O)N2[C@@H](Cc3c([nH]c4ccccc34)C2(C)C)C1=O,"inconclusive: 35.5 µM [fluorescent, side channel, single point]",
COc1ccc(NCc2nnc(-c3ccccc3)o2)cc1,,inactive: 55.7%
CC(=O)c1sc(Nc2nc3cc4c(cc3s2)OCO4)nc1C,"inconclusive: 28.2 µM [fluorescent, side channel, partial curve]",
O=C(NC1CCCC1)c1ccc(CS(=O)(=O)Cc2ccccc2F)o1,"inconclusive: 14.1 µM [quencher, side channel, single point]",
Cc1ccc(C(=O)Oc2oc(-c3ccccc3)nc2C=Nc2ccc(N(C)C)cc2)cc1,"inconclusive: 25.1 µM [fluorescent, side channel, partial curve, poor fit]",
CN=c1scc(-c2ccc(F)cc2)n1/N=C/c1ccc(O)c(O)c1,,inactive: -0.621%
COc1cccc(/C=C2/Sc3ccc(C(=O)NCCN4CCCCCC4)cc3NC2=O)c1,"inconclusive: 89.1 µM [quencher, side channel, single point]",
COc1cccc(F)c1C(=O)NC(=O)Nc1ccc2nc(C)oc2c1,"inconclusive: 50.1 µM [inhibitor, partial curve]",
CCN1CCN(Cc2ccc(NC(=O)Nc3ccccc3Cl)cc2)CC1,,inactive: 14.2%

# Reformatted: results already given
Structure (SMILES) | Potency | activity change, negative = inhibition
COc1ccc(NCc2nnc(-c3ccccc3)o2)cc1 |  | inactive: 55.7%
CC(=O)c1sc(Nc2nc3cc4c(cc3s2)OCO4)nc1C | inconclusive: 28.2 µM [fluorescent, side channel, partial curve] | 
